Plain letter strings leave the end groups untold.
Experiment: general procedure: Fmoc solid-phase peptide synthesis; Wang resin (0.3 g, 1.1 mmol/g loading capacity); DCC/HOBT
Settings: for final HPLC purity: analytical RP HPLC (Agilent 1200, Phenomenex Gemini C18)
[1] = whole synthesis, scale of the general procedure 0.3 g resin

Substance | final HPLC purity [1] | isolated yield [1] | final HPLC purity (late stage modification step)
GQNGISDL | 97% | 85% | 
c[isoKSDL] |  |  | 96%

— paper PMC11400633 (Protein Science : A Publication of the Protein Society, 2024)
